Assay results as given in patent US11162937B2, “Patient selection method for inflammation” (Purdue Research Foundation, priority 2013, dated 2021).
For at least one compound, name, drawing or mass did not settle the structure.

Columns and labels:
ApoE−/− mice [1] = assay: Atherosclerosis in ApoE−/− mice on high fat diet: ^99mTc-EC20 radioimaging and aortic histology under therapy; type: in vivo
Description: Five week old male ApoE−/− mice were purchased from Jackson Laboratories and placed on an adjusted calorie diet (42% from fat, Harlan Laboratories). Healthy control mice (C57BL/6) were similarly maintained on normal chow. Mice were divided into therapy groups (n=5). Healthy mice and disease control mice received 100 μL saline daily by oral gavage. Diseased mice were treated daily with valsartan (1 mg/kg), or fluvastatin (3 mg/kg) by oral gavage. After three weeks of treatment, mice were imaged with 300 μCi ^99mTc-EC20. Mice were again imaged with ^99mTc-EC20 after 12 weeks of therapy and then euthanized by CO2 asphyxiation. Aortas were dissected and H&E and oil red O staining was performed.
(§1) ^99mTc-EC20 was prepared as previously described in C.
The ability to predict response to therapy might be most useful when applied to treatment of inflammatory/autoimmune diseases that are either intrinsically difficult to monitor or slow to respond to therapeutic intervention. Because atherosclerosis suffers from both disadvantages due to its inaccessible location and slow rate of progression, ^99mTc-EC20 was analyzed to determine if it might be effective in predicting response to therapy in a common murine model of heart disease. […] After 3 weeks of daily treatment, when no morphological symptoms of heart disease could be detected, mice were anesthetized and imaged with ^99mTc-EC20.

ApoE−/− mice [2] = details: prior finding; cited from earlier work
CIA mice = assay: Collagen-induced arthritis (CIA) mice: ^99mTc-EC20 radioimaging, arthritis score and paw thickness under anti-inflammatory therapy
Description: Collagen-induced arthritis (CIA) was initiated using established methods on 6-7 week old female DBA/1 mice (Jackson Laboratories) maintained on folate-deficient diet (Harlan-Teklad). Briefly, mice were immunized at the base of the tail with 100 μg bovine type II collagen emulsified in complete Freund's adjuvant (Chondrex, Inc., Redmond, Wash., USA). Mice were then boosted 21 days later with a similar injection of 100 μg bovine type II collagen emulsified in incomplete Freund's adjuvant. After four days, onset of arthritis was synchronized in all mice with an intraperitoneal injection of 25 μg lipopolysaccharide (LPS) dissolved in saline. Three days later mice were distributed equally across control and treatment groups (n=5). Healthy mice and disease control mice received daily intraperitoneal injections of 100 μL saline. […] Arthritis scores were assessed every other day by researchers blinded to the various treatment groups, using the following scoring system: 0=normal; 1=mild, but definite redness and swelling of the ankle or wrist, or apparent redness and swelling limited to individual digits, regardless of the number of affected digits; 2=moderate redness and swelling of ankle or wrist; 3=severe redness and swelling of the entire paw including digits; 4=maximally inflamed limb with involvement of multiple joints. A total score for each mouse was calculated by summing the scores for each of the four paws, allowing a maximum possible score of 16 per animal. Paw thickness was measured with calipers every other day starting on the first day of treatment. On day 3 of treatment, mice were anesthetized with isoflurane and imaged with ^99mTc-EC20 as described below. Mice were again imaged and then euthanized by CO2 asphyxiation on day 11 of treatment.
^99mTc-EC20 was prepared as previously described in C. P. Leamon, M. A. Parker, I. R. Vlahov, L. Xu, J. A. Reddy, M. Vetzel, N. Douglas, Synthesis and Biological Evaluation of EC20: A New Folate-Derived, ^99mTc-Based Radiopharmaceutical. Bioconjugate Chem. 13, 1200-1210 (2002), incorporated herein by reference. A preparation method for ^99mTc-EC20 is also described in U.S. Pat. No. 7,128,893, incorporated herein by reference. Briefly, 1 mL of 15 mCi/mL sodium pertechnetate (Cardinal Health) was added to 0.1 mg of EC20 (a gift from Endocyte, Inc.) and heated at 100° C. for 18 min. After diluting with saline, 100 μL ^99mTc-EC20 (150 μCi (˜75 nmol of EC20 per kilogram for CIA, ulcerative colitis and pulmonary fibrosis mice) or 300 μCi (˜150 nmol of EC20 per kilogram for atherosclerosis)) was injected intraperitoneally into the desired mice, and unbound ^99mTc-EC20 was allowed to clear from tissues for 4 h. […]

[3] = test system: mice with pulmonary fibrosis; assay: Bleomycin-induced pulmonary fibrosis mice: ^99mTc-EC20 radioimaging, BAL cell count, lung hydroxyproline, H&E; type: in vivo
Description: Pulmonary fibrosis was induced in mice as previously described in B. B. Moore, C. M. Hogaboam, Murine models of pulmonary fibrosis. Am J Physiol Lung Cell Mol Physiol. 294, L152-160 (2008), incorporated herein by reference. Briefly, 6 week old female C57BL/6 mice (Harlan Laboratories) maintained on a folate-deficient diet were anaesthetized with isoflurane, and 50 μL of bleomycin (2 U/kg body weight) dissolved in saline was intratracheally instilled into each mouse. Healthy control mice were similarly intratracheally instilled with 50 μL saline. Mice were then separated into treatment groups (n=5). […] Diseased mice were injected every day intraperitoneally with dexamethasone (0.5 mg/kg) or etanercept (300 μg). Mice were imaged with ^99mTc-EC20 after 6 days of treatment and again after 15 days of treatment. Mice were then euthanized by CO2 asphyxiation and bronchoalveolar lavage fluid was collected and cells were counted using a Beckman Coulter Z™ Series COULTER COUNTER® Cell and Particle Counter. The left lung was fixed in formalin and submitted to the Purdue Histology & Phenotyping Laboratory for H&E staining and the right lung was used for analysis of hydroxyproline content using a hydroxyproline assay kit from Sigma-Aldrich (St. Louis, Mo.).
as §1
Since pulmonary fibrosis is thought to be primarily driven by M2 macrophages, C57BL/6 mice were induced to develop an acute form of lung fibrosis by intratracheal instillation of bleomycin. Immediately following disease induction, mice were treated daily with intraperitoneal injections of dexamethasone, etanercept, or saline, and then imaged with ^99mTc-EC20 six days later.

Compound	^99mTc-EC20 uptake in chest cavities relative to saline-treated mice (ApoE−/− mice [1]; after 3 weeks of daily treatment)	aortic wall thickening relative to saline-treated mice (ApoE−/− mice [1]; after 12 weeks of daily therapy, H&E)	plaque formation in murine models of atherosclerosis (have been shown) (ApoE−/− mice [2])	disease symptoms (arthritis score, paw swelling) relative to disease control (CIA mice; day 3 of therapy)	uptake of ^99mTc-EC20 in the affected appendages relative to disease control (CIA mice; day 3 of therapy, 150 μCi ^99mTc-EC20 i.p., imaged after 4 h)	disease symptoms / joint inflammation (arthritis score, paw thickness) relative to disease control (CIA mice; day 11 of therapy)	uptake of ^99mTc-EC20 (radioimages) (CIA mice; day 11 of therapy)	fibrosis by H&E analysis of the lungs ([3]; day 15 of treatment)	hydroxyproline contents in resected lung tissues compared to saline-treated controls ([3]; day 15 of treatment)	total cell counts in bronchoalveolar lavage fluids compared to saline-treated controls ([3]; day 15 of treatment)	accumulation of ^99mTc-EC20 compared to saline-treated disease controls ([3]; six days of treatment)
CC(C)n1c(/C=C/C(O)CC(O)CC(=O)O)c(-c2ccc(F)cc2)c2ccccc21 (centres unmarked) [fluvastatin]	significantly less	significantly reduced	reduce plaque formation	–	–	–	–	–	–	–	–
C[C@@H]1C[C@H]2[C@@H]3CCC4=CC(=O)C=C[C@]4(C)[C@@]3(F)[C@@H](O)C[C@]2(C)[C@@]1(O)C(=O)CO [dexamethasone]	–	–	–	no reduction	markedly less	substantially resolved	significantly reduced uptake	reduced fibrosis	reduced hydroxyproline contents	decreased total cell counts	decreased accumulation
